Measurements published in patent publication US4992417A (Mount Sinai School of Medicine, priority 1988, dated 1991).

experiment: peptide synthesis; conditions: coupling step

Substance	step yield [%]
Boc.Asp(cHex)-Leu-Val-Glu(cHex)-Ala.OBu^t	85
Boc.Ser(Bzl)-Asp(cHex)-Leu-Val-Glu (cHex)-Ala.OH	90
Boc.Ser(Bzl)-Asp(cHex)-Leu-Val-Glu(cHex)-Ala-Leu-Tyr(Bzl)-Leu-Val-Cys(Dpm)- Gly-Glu(Bzl)-Arg(NO2)-Gly-Phe-Phe-Tyr(Bzl)-Thr-Pro-Lys(Z)-Thr(Bzl).OBzl	88
Z.Leu-Val-Glu (cHex)-Ala.OBu^t	88
